“Also recorded” adds a separate entry of the source. At least one structure is not confirmed: it was looked up by name or label, or the drawing left a doubt.
What was measured:
Format in all cases: cell-based, human
sHLO = assay: Expression of insulin response genes in drug-treated sHLO; settings: insulin starvation 24 hours, then 100 ng/mL for 8 hours, RNA extracted
fatty liver HLO [1] = assay: Drug screening in fatty liver HLO: inflammatory gene expression; settings: HLO treated with fatty acids for 6 days, drug exposure 48 hours
Protocol: (§1) HLO were treated with fatty acids for 6 days to induce a fatty liver phenotype. Then, candidate drugs were exposed to the sHLO for 48 hours.

fatty liver HLO [2] = assay: PCK1-luciferase assay of insulin responsiveness in drug-treated fatty liver HLO; settings: insulin starvation 24 hours, then 100 ng/mL insulin for 3 hours
fatty liver HLO [3] = assay: Drug screening in fatty liver HLO: fat accumulation; settings: HLO treated with fatty acids for 6 days, drug exposure 48 hours
Protocol: as §1

SMILES: CC[C@H]1[C@@H](O)[C@@H]2[C@H](CC[C@]3(C)[C@@H]([C@H](C)CCC(=O)O)CC[C@@H]23)[C@@]2(C)CC[C@@H](O)C[C@@H]12 [OCA, obeticholic acid]
- insulin responsiveness of gluconeogenesis and lipogenic regulatory genes (sHLO): restoration of insulin responsiveness; also recorded: improved insulin responsiveness
- inflammatory gene expression (TNFa, NFKB1, NFKB2) / inflammatory response (fatty liver HLO [1]): improved
- inflammatory gene expression (TNFa, NFKB1, NFKB2) / inflammatory response (fatty liver HLO [1]; listed as Obeticholic acid): reduced
- insulin responsiveness (PCK1-luciferase assay) (fatty liver HLO [2]): restoration of insulin responsiveness; also recorded: improved insulin responsiveness
- fat accumulation (fatty liver HLO [3]): improved
- fat accumulation (fatty liver HLO [3]; listed as Obeticholic acid): reduced
- fat accumulation (fatty liver HLO [3]; listed as obeticholic acid): reduced

SMILES: CCc1ccc(CCOc2ccc(CC3SC(=O)NC3=O)cc2)nc1 (stereo not drawn) [Pioglitazone, pioglitazone]
- inflammatory gene expression (TNFa, NFKB1, NFKB2) / inflammatory response (fatty liver HLO [1]): limited improvement
- fat accumulation (fatty liver HLO [3]): limited improvement
